For at least one compound, name, drawing or mass did not settle the structure.
Tested on: Nonobese Diabetic (NOD) Mice
Assay: Combination therapy with gastrin and a DPP-4 inhibitor in diabetic NOD mice: blood glucose
Assay type: in vivo
Settings: NOD female mice, DPP-4 inhibitor 250 mg/kg oral gavage once daily, gastrin 15 ug/kg s.c. twice daily

## CSCCC(NC(=O)C(Cc1c[nH]c2ccccc12)NC(=O)CNC(=O)C(Cc1ccc(O)cc1)NC(=O)C(C)NC(=O)C(CCC(=O)O)NC(=O)C(CCC(=O)O)NC(=O)C(CCC(=O)O)NC(=O)[C@H](CCC(=O)O)NC(=O)[C@H](CCC(=O)O)NC(=O)[C@H](CC(C)C)NC(=O)[C@H](Cc1c[nH]c2ccccc12)NC(=O)[C@@H]1CCCN1C(=O)CNC(=O)[C@@H](N)CCC(=O)O)C(=O)NC(CC(=O)O)C(=O)NC(Cc1ccccc1)C(N)=O (stereo in doubt) [Gastrin]
0 weeks (start of treatment)
  Blood Glucose 0 weeks: 9.5 ± 0.4 mmol/L
1 week of treatment
  Blood Glucose 1 weeks: 8.2 ± 0.4 mmol/L
2 weeks of treatment
  Blood Glucose 2 weeks: 7.2 ± 0.4 mmol/L
3 weeks of treatment
  Blood Glucose 3 weeks: 9.0 ± 2.3 mmol/L
4 weeks of treatment
  Blood Glucose 4 weeks: 11.9 ± 3.8 mmol/L

Source: patent US20100144613A1, “Combined use of DPP-IV Inhibitors and Gastrin Compounds” (priority 2005, published 2010)
